Structures were worked out from names or drawings and are uncertain.
Assays:
Experiment in all cases: Method 1: intracellular Ca2+ release (FLIPR, Calcium 5) in recombinant CHO-K1 cells
human S1PR5 receptor = human S1PR5 receptor (Homo sapiens, UniProt Q9H228); conditions: read-out: S1P5 EC50 range; agonist potency, determined with method 1 (symbols A-D)
Protocol: (§1) Agonistic activity was measured using two different methods, described below.
(§2) Method 1. Intracellular Ca^2+ Release
(§3) Agonist potency and intrinsic activity was assessed by measurement of intracellular Ca^2+ release. Recombinant CHO-K1 cells (Euroscreen, Brussels, Belgium) expressing human S1PR5, S1PR1, S1PR3 or S1PR4 receptors, aequorin, and GTP binding protein Gq/i5 were cultured using a medium containing nutrient mixture F-12 Ham (Sigma-Aldrich) with 10% FBS, and 100 μg/mL gentamicin and equilibrated at 5% CO2.
(§4) 15.000 cells in 20 μL medium were seeded into Biocoat poly-D-Lysine coated 384 well plates (Becton Dickinson #35-6663) and grown to 95% confluency after 24 h.
(§5) Culture medium was replaced by an assay buffer consisting of HBBS with Ca^2+ and Mg^2+ (Invitrogen #14025-050), 20 mmol/L Hepes (Sigma-Aldrich #H-3375), 2.5 mmol/L probenecid (Sigma-Aldrich #P-8761, and 0.1% BSA (Sigma-Aldrich #A-7030) pH 7.4. The Calcium 5 no-wash FLIPR assay kit (Molecular Devices #5000625) was performed as described in the kit instructions. Cells were incubated with Calcium 5 dye for 1 h at 37° C., 5% CO2 in the dark. After 45 min adaptation to RT assessment of agonist stimulation of intracellular Ca^2+ release was performed by addition of test compounds at concentrations obtained by serial dilution. Phospho-fingolimod was used as positive control. Antagonists were pre-incubated for 10 min with cells before addition of the agonist (phospho-fingolimod at EC80). Measurements were performed using a fluorometric imaging plate reader FLIPR® tetra (Molecular Devices). Agonist at the human S1P receptors were characterized by deducing EC50 (potency) values from a nonlinear fit to the measured fluorescence raw data after normalization to the reference agonist (phospho-fingolimod) curve.

By UniProt entry, the sequences of proteins in these tests, tags left out.
UniProt Q9H228, whole entry: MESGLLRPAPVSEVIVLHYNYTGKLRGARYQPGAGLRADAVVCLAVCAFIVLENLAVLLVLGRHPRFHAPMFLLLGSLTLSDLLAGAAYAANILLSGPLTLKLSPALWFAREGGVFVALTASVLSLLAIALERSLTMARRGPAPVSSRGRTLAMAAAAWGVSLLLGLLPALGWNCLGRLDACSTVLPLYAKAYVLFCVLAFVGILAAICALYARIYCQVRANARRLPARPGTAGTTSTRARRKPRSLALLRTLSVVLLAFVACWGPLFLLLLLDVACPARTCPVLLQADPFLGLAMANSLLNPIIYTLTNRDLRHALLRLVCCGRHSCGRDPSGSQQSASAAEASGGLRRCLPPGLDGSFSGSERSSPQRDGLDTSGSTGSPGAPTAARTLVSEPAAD
UniProt P21453, whole entry: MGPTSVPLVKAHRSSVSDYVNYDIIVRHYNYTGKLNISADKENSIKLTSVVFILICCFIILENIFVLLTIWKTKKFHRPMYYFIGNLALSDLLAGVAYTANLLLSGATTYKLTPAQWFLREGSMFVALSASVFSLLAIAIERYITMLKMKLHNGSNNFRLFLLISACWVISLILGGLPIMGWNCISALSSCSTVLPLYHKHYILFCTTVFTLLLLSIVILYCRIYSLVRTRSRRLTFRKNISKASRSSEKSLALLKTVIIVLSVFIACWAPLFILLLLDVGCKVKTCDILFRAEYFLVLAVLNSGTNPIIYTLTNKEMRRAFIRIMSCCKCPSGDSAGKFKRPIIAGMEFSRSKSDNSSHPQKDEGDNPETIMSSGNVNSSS
UniProt Q99500, whole entry: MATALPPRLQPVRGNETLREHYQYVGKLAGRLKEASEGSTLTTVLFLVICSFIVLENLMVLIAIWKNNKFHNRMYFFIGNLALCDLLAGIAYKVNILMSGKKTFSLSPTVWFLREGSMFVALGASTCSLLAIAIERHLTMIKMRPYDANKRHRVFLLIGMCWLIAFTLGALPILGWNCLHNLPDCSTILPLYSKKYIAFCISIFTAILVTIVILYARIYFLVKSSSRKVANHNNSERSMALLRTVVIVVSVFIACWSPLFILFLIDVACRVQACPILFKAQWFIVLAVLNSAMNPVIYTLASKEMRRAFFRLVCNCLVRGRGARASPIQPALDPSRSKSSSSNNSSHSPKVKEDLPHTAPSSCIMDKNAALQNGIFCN

human S1PR1 receptor = human S1PR1 receptor (Homo sapiens, UniProt P21453); conditions: read-out: S1P1 EC50; (1): determined with method 1
Protocol: as §1, §2, §3, §4, §5

human S1PR3 receptor = human S1PR3 receptor (Homo sapiens, UniProt Q99500); conditions: read-out: S1P3 EC50; (1): determined with method 1
Protocol: as §1, §2, §3, §4, §5

## O=C(O)CCN1Cc2ccc(-c3cccc(OCc4c(Cl)cccc4Cl)c3)nc2C1
Human S1PR5 receptor
  EC50: 1 to 10 µM
Human S1PR1 receptor
  EC50: > 1 µM
Human S1PR3 receptor
  EC50: > 1 µM

Source: patent publication US10556907B2 (AbbVie Inc., priority 2015, dated 2020)
